# Patent US8927280B2, “Compositions and methods for promoting the generation of definitive endoderm” (President and Fellows of Harvard College, priority 2009, dated 2015)
# Some entries share one result that the patent states for a list of compounds.
# Key:
# Nodal = Nodal expression after compound treatment; type: cell-based, mouse; conditions: treatment for 6 hrs
# mouse ES cells = assay: Sox17 endoderm induction in mouse ES cell monolayer cultures; type: cell-based; conditions: for percent Sox17+ cells produced before injection: mouse ES cell reporter lines expressing constitutive YFP; for percent of ES cells that form (definitive) endoderm, summary statement / percentage of cells expressing Sox17 at day 4 of treatment / concentration range with the highest efficiency, and no toxicity: mouse ES cells; for concentration range with the highest efficiency, and no toxicity: titration 50 nM to 5 μM
# Protocol: Mouse ES cells were routinely cultured on irradiated CF-1 MEF feeder cells in DMEM (Gibco) media supplemented with 15% Fetal Bovine Serum (HyClone FBS, Invitrogen), 2 mM L-glutamine (L-Glu, Gibco), 1.1 mM 2-mercaptoethanol (Gibco), 1 mM nonessential amino acids (Gibco), 1× penicillin/streptomycin (P/S, Gibco) and 5×10^5 units LIF (Chemicon). Cells were passaged at the ratio of 1:6-1:12 every 2-3 days using 0.25% trypsin. To generate the starting population, mouse ES cells was cultured on MEF feeder cells until they reached 80-90% confluence. Prior to differentiation, ES cells were passaged onto gelatin coated plates for 30 min to remove MEFs. MEF depleted ES cells were seeded at 2500 cells per cm^2 on gelatinized plates. After overnight culture, cells were exposed to 25 ng/ml Wnt3a (R&D Systems)+50 ng/ml recombinant Activin A (R&D Systems) or 500 ng/ml Nodal (R&D Systems) in DMEM (Gibco) supplemented with 1×L-Glu and 0.2% FBS (Gibco) for 1 day, then Activin A or Nodal in the same media and cultured for 4-6 days to induce endoderm differentiation. For the chemical inductions, compounds IDE1 and IDE2 (provided by Stuart L. Schreiber) were added at 5 μM concentration in the differentiation media. For pancreatic progenitors induction, the cells were transferred to 50 ng/ml FGF10 (R&D Systems), 0.75 μM KAAD-cyclopamine (Calbiochem) and 2 μM RA (Sigma) or Indolactam V 330 nM (Axxora) in DMEM supplemented with 1×L-Glu, 1×PS, 1×B27 (Invitrogen) for 4 days. SHB431542 was purchased from Sigma. All stock compounds were made with either DMSO or PBS
# Cells were fixed in 4% paraformaldehyde (Sigma) in PBS for 20 min at 4° C. followed by a wash with PBS. Cells were blocked with 10% donkey serum (Jackson Immunoresearch) in PBS/0.1% Triton X and incubated with primary antibodies overnight at 4° C. Secondary antibodies were incubated for 1 h at room temperature. The following antibodies and dilutions were used: goat anti-SOX17, (1:500 R&D systems); rabbit anti-PDX1 (1:200, Chemicon), rabbit anti-FoxA2 (1:500; Upstate), rabbit anti-Dab2 (1:200, Santa Cruz), rabbit anti-SPARC (1:200, Santa Cruz,), mouse anti-AFP (1:100, Sigma), anti-Gata6 (1:50, Santa Cruz Biotech), goat anti-HNF6 (1:200, Santa Cruz Biotech), rabbit anti-RFP/DsRed (1:300, MBL), rabbit anti-GFP (1:200, Molecular Probes). Secondary antibodies were: rhodamine Red-X-conjugated donkey anti-goat antibody, 1:200 (JIRL), Alexa-488-conjugated goat anti-mouse and Alexa-594-conjugated goat anti-rabbit antibodies (1:300, Molecular Probes). Nuclei were visualized by Hoechst 33342 (1:1000, Molecular Probes). Images were taken using an Olympus IX70 Microscope. For quantification images were analyzed for the frequency of SOX17+, FoxA2+ or Pdx1+ cells using Metamorph image analysis software (Molecular Devices) and at least 6 images per well were collected. Data were confirmed in four independent experiments.
# Endoderm formation was monitored by Sox17 expression by either flow cytometry detection of Sox17/DsRed or immunofluorescence using anti-Sox17 antibodies. Cells labeled by antibody staining were quantified using Metamorph software ad percentage of total cell number (based on Hoechst 33342 nuclei staining). All conditions were tested in either tri- or quadruplicates.
smiles,measurement,setting,value
O=C(O)CCCCCC(=O)N/N=C/c1ccccc1C(=O)O [IDE1],upregulation of Nodal transcripts compared to the control,Nodal,6-8 fold
same,percent Sox17+ cells produced before injection,mouse ES cells,60-70%
same,"percent of ES cells that form (definitive) endoderm, summary statement",mouse ES cells,70-80%
same,percentage of cells expressing Sox17 at day 4 of treatment,mouse ES cells,40-50%
same,"concentration range with the highest efficiency, and no toxicity",mouse ES cells,250 to 800 nM
O=C(O)CCCCCC(=O)NN=C1CCCC1 [IDE2],upregulation of Nodal transcripts compared to the control,Nodal,6-8 fold
same,percent Sox17+ cells produced before injection,mouse ES cells,60-70%
same,"percent of ES cells that form (definitive) endoderm, summary statement",mouse ES cells,70-80%
same,percentage of cells expressing Sox17 at day 4 of treatment,mouse ES cells,40-50%
same,"concentration range with the highest efficiency, and no toxicity",mouse ES cells,250 to 800 nM
